# Results are given in words; binding and its absence hold for the method and conditions named. In cells and extracts the contact can be indirect.
# Protein sequences, listed by entry. Tags and fused reporters are not part of them.
# UniProt Q9NRC8: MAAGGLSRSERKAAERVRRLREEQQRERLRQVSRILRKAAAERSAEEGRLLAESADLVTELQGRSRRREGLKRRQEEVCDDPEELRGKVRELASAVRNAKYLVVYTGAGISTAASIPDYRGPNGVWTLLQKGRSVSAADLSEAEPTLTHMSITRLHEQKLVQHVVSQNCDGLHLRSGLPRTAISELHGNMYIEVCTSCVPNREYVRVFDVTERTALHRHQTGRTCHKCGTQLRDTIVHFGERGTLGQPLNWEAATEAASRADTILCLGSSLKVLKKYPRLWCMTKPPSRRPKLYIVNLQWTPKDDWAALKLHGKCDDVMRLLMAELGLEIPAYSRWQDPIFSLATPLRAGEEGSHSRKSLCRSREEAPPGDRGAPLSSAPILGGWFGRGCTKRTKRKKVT
# B1: human SIRT2, endogenous (enzyme, UniProt Q8IXJ6 1-389)
# chain: MAEPDPSHPLETQAGKVQEAQDSDSDSEGGAAGGEADMDFLRNLFSQTLSLGSQKERLLDELTLEGVARYMQSERCRRVICLVGAGISTSAGIPDFRSPSTGLYDNLEKYHLPYPEAIFEISYFKKHPEPFFALAKELYPGQFKPTICHYFMRLLKDKGLLLRCYTQNIDTLERIAGLEQEDLVEAHGTFYTSHCVSASCRHEYPLSWMKEKIFSEVTPKCEDCQSLVKPDIVFFGESLPARFFSCMQSDFLKVDLLLVMGTSLQVQPFASLISKAPLSTPRLLINKEKAGQSDPFLGMIMGLGGGMDFDSKKAYRDVAWLGECDQGCLALAELLGWKKELEDLVRREHASIDAQSGAGVPNPSTSASPKKSPPPAKDEARTTEREKPQ
# Molecular target: SARS-CoV-2 Nsp14 with a C-terminal 2xStrep affinity tag (SARS-CoV-2) (UniProt P0DTD1)
# Experiment: pull-down
row,Molecule,binding
1,"human SIRT7, endogenous (from UniProt Q9NRC8 1-400) (enzyme)",no binding
2,"human SIRT6, endogenous (from UniProt Q8N6T7 1-355) (enzyme)",no binding
3,B1,no binding

# — publication PMC9499238, “SIRT5 is a proviral factor that interacts with SARS-CoV-2 Nsp14 protein” (PLoS Pathogens, 2022)
